# Measured values reported in patent US20200369770A1 (NANJING LEGEND BIOTECH, published 2020).
# No constants are given. Whether binding was seen depends on the method and setting. Some binding calls cover weakened binding; strength is not graded here. Tags and fused reporters may be left off the sequences shown.
# B1: VHH2 HCAb (antibody, human IgG4 S228P, V domains shown)
# VH: EVQLVESGGGLVQPGGSLRLSCAASGYTVSSYCMGWFRQAPGKGREGVSAIDSDGSVSYADSVKGRFTISKDNSKNTLYLQMNSLRAEDTAVYFCAADLCWVDQDQGEYNTWGQGTLVTVSS
# notes: positive control for LAG-3; also called anti-LAG-3 VHH2 HCAb
# Target: T1, His-tagged LAG-3 protein (Homo sapiens (Human)) (UniProt P18627)
# T1 sequence: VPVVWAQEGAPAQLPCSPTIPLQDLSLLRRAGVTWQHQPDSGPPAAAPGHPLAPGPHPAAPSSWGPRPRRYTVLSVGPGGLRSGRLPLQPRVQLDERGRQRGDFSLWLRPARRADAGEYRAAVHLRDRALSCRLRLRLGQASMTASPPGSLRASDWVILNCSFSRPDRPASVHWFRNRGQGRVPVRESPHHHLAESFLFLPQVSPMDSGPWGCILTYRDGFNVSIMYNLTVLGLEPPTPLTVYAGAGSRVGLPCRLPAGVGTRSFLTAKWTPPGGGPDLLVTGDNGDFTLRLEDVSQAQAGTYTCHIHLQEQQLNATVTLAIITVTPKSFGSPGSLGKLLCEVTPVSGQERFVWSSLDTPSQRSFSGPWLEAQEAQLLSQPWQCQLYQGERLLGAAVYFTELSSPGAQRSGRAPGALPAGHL
# Test: SPR (BIACORE T200); binder immobilized on the chip, His-tagged LAG-3 as analyte
binder,measurement,value
B1,binding,binds
